# From PubChem BioAssay AID1347423 (Functional Genomics Laboratory (NCATS/FGL), 2020)
# Out of some 52,000 sequences screened, about 210 (0.4%) were called active.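 Rule for the calls: active = gene whose silencing raises cell survival under the drug, median off-target-corrected z-score across its silencing RNAs 2 or more; inactive = the rest.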 Some of the results follow.
# Experiment: Resistance to Poly (ADP-Ribose) Polymerase inhibitor: Gene Identification via Genome-wide siRNA Screen
# Details: mouse BRCA2 R2336H ES cells, olaparib, CellTiter-Glo viability; stronger effect = higher value
# Method in brief: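 Mouse BRCA2 R2336H ES cells were reverse-transfected with siRNA (20 nM final), treated at 48 h with 500 nM olaparib, and read by CellTiter-Glo after 72 h. Scores: MAD-based z per siRNA, median per gene, seed off-target correction.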
row,Sequence,z-score
1,GGGCAUCCGAAUUGACUCATT against Tmem4,inactive: -0.33
2,GCUAAGCCCUACAUGACCATT against Plcb2,inactive: 0.536
3,CCACGUAUUUAAAUAGUUCTT against Gdf3,inactive: 0.51
4,GCAGGACCACACGUAUUCATT against BC024806,inactive: 0.746
5,GGUGUGACAUGGUUUGAUATT against 2610208E05Rik,inactive: -0.269
6,GGACAUGGCCAGAUACUACTT against Npy,inactive: 0.681
7,GCGACGCAGAGUGAGAAGATT against Cdk4,inactive: 0.65
8,CGGAGGAAUCACAAGUAUATT against Il23r,inactive: 0.339
9,GGAUUCAAACAAUGAGCUCTT against BC049806,inactive: 0.448
10,GAGCUGGAGCAAGAAUUCGTT against 4632415L05Rik,inactive: -1.03
11,GGGCUGAAGAUGACUUCAATT against Topors,inactive: -1.22
12,GGACAGCAGAAGGUCUCAUTT against Pira3,inactive: 0.227
13,GCCGUUCCCAUUAUCGUUUTT against A930025J12Rik,inactive: 0.0734
14,GGAAUCUCACCAAUCCAAATT against Rab14,inactive: -0.329
15,GCCUCUCUAUGUGCACCACTT against V1rc19,inactive: -0.11
16,GGUCCAGUUCCUUGACAUCTT against Ifit1,inactive: -1.91
17,GGAAAGCUACAUGUUGCUUTT against Prkacb,inactive: 0.504
18,GUGCUAGAAUACUUGACAGTT against Hist1h2aa,inactive: -2.17
19,GGACAGACACAAGAUGAGATT against 2810403A07Rik,inactive: 0.638
20,CCUAGACAUCAGUAAUGCGTT against Zbtb17,inactive: -0.301
21,GGAACUGACUCUUGAAAAUTT against Cd14,inactive: -0.736
22,GGAAGAUGCUUUUGUAAGUTT against Smyd4,inactive: -1.04
23,GGAUACAAACUUAACUCAUTT against 1700029I01Rik,inactive: 0.0382
24,GGUGCAUUUUCUAGAAUCATT against 4930550B20Rik,inactive: 0.308
25,GGAAAAAGAACACCUUUUATT against 6330505F04Rik,inactive: -0.0394
26,GGUUGAACAUAAGCACAAUTT against 4921511I16Rik,inactive: -0.365

row,Sequence,z-score
1,GGAGGAGAAAGAGGAUUCATT against E430039K05Rik,inactive: 0.433
2,GGAGAUGGAUAAUUACGAGTT against Rabl4,inactive: 2.1
3,CGAAUACGAAGCAGAAAAGTT against Smarce1,inactive: -1.21
4,GGCCCUUCAAGAAUCUCUGTT against F830003B07,inactive: -1.79
5,GGCAAGAAAUUCAAAAGCUTT against Supv3l1,inactive: -0.137
6,UGAAUAAGGUGUGGUGCUCTT against V1rd14,inactive: 1.96
7,GCGAGAGUCACAAAGUGCATT against Wbscr16,inactive: -0.847
8,GGAGUGUGUCUAUACUAUUTT against Otor,inactive: 0.541
9,GCCAUUGCUAGUAAUUCUUTT against Vkorc1l1,inactive: 0.254
10,GGCACUGGAUCUUACAGAATT against 1700034I23Rik,inactive: 0.748
11,GGAGAUUUACUCACAGUUCTT against Kcnip4,inactive: -0.935
12,GGCCUUUGCUCUAAACAGCTT against Rad52b,inactive: 0.157
13,GCUUCAGACCCACGCAUAATT against Taf10,inactive: -0.99
14,GGACUAUGGCUGCUGCUCATT against 4921520P21Rik,inactive: -1.67
15,GGUCAAGUGUAACAAAGAATT against Bcorl1,inactive: -1.03
16,CACAGGAGCCAAUGAUGCUTT against Taar7d,inactive: -1.56
17,CCUCAAAUUUUGGGUCUCATT against Bcat2,inactive: -1.8
18,CCCUCAGUACCUAAUUAAGTT against Capn2,inactive: 0.114
19,GGCAGAAUGGGAAAUGUAUTT against Htr7,inactive: 2.92
20,GGUCUGUCUCGUCUACAAUTT against Gstm1,inactive: -1.16
21,ACUACUCAGACAUCUCUUGTT against Capn11,inactive: 2.55
22,CCAUUCCAAAGCACUCUUATT against Cerkl,inactive: -0.287
23,GGAAUUCAUUAGAAACCAGTT against Psmc1,inactive: -0.119
24,GCUGCACAUUGUCCAUUAUTT against Car12,inactive: -0.13
25,GGAGAAUUUACCUCCUAUUTT against 2310042P20Rik,inactive: -1.04
26,CGAAGCUCUAAUUUCAUGUTT against Pik3c3,inactive: 1.19

# As entered above:
# GGAAUUCAUUAGAAACCAGTT against Psmc1 | z-score: inactive: -0.119
# GGAGAUUUACUCACAGUUCTT against Kcnip4 | z-score: inactive: -0.935
# ACUACUCAGACAUCUCUUGTT against Capn11 | z-score: inactive: 2.55
# GCUUCAGACCCACGCAUAATT against Taf10 | z-score: inactive: -0.99
# GGUCUGUCUCGUCUACAAUTT against Gstm1 | z-score: inactive: -1.16
# GGCCUUUGCUCUAAACAGCTT against Rad52b | z-score: inactive: 0.157
# GGCAAGAAAUUCAAAAGCUTT against Supv3l1 | z-score: inactive: -0.137

# (continued)

row,Sequence,z-score
1,GGAAAGAUGAGUUUCUGUUTT against Arf3,inactive: -0.264
2,GCCAGGAACCCUUUUAAUCTT against D630003K02Rik,inactive: 1.3
3,GGAGAAAAACAUCAUUGAATT against Reck,inactive: 0.155
4,GGACUGGAGUGGUUUGUCUTT against Atp9b,inactive: 0.57
5,GGUUAAAUGCCCGCCAACATT against Eif2ak4,inactive: -1.65
6,GCGUGAAUGAGGGAUCAGATT against Nphs1,inactive: -0.92
7,GGCAGAGUUUGAAAAGAUCTT against BC055447,inactive: 0.552
8,GGCUUGUUUCCAAAAUAGGTT against 3110032G18Rik,inactive: -0.0199
9,GCCCAUCAGAUGGCAAGAUTT against 9030221M09Rik,inactive: -3.15
10,GGCUAAGAAGGAGAUUAAATT against Gas2,inactive: 0.68
11,CGGGCAUGAUGAAUCGAUGTT against Ldhd,inactive: -0.2
12,GGAGACACAACCAACAUUATT against Cnr1,inactive: -0.067
13,CGGUCAUGUCUACAUGUGCTT against Pfc,inactive: 0.381
14,GGAAUCUUUGUCCGUGAGCTT against Prx,inactive: -0.262
15,GCAAAGGACCUAAUUUAUUTT against Ehd4,inactive: 0.489
16,GCACAGAUCUUUUUGUUCUTT against Olfr297,inactive: -1.07
17,GCCAGUGAGUUUAUCAGCCTT against AB114826,inactive: -0.89
18,CCUUAUGAGUCUUACGACUTT against Zfp326,inactive: -0.0147
19,CCAUCUGUCUUCUAUUUCATT against Echdc1,inactive: 0.619
20,GGCCUUACUAAAGAACCGCTT against Ipo4,inactive: 0.0978
21,GGAAGCAGAGAGUUAGAAGTT against Ndel1,inactive: -1.17
22,GGUCUAGCAGCAAUGAAUGTT against 9030405D14Rik,inactive: 2.21
23,CCCAGAAGGACGGCACUAGTT against H2-DMb2,inactive: -1.48
24,CGACAUGAUUACUAUUCUCTT against Eif4ebp1,inactive: -0.0612
25,GCAUUUUGUGAGCGUACAATT against Itgal,inactive: 1.52
26,GGCUGUUUGCCUGUAUUCUTT against Olfr259,inactive: 1.5

# Rewritten bar-delimited: part of the list above.
row | Sequence | z-score
8 | GGCUUGUUUCCAAAAUAGGTT against 3110032G18Rik | inactive: -0.0199
15 | GCAAAGGACCUAAUUUAUUTT against Ehd4 | inactive: 0.489

# Further results follow:

row,Sequence,z-score
1,GGUACCAGAACACAAGACCTT against Vkorc1,inactive: 1.07
2,GGACACAAAUGACAUCAACTT against Ptpns1,inactive: -0.156
3,GGCGGAUUGAAUAAGAAGGTT against Pfn2,inactive: -0.273
4,GGUUCUCAUUGUUGUUGUATT against Prkcb1,inactive: -0.453
5,GGUUUUCAGUCACACAUCATT against 4732493F09Rik,inactive: -1.42
6,GGGUUGCCAAGACUUGAUATT against 1190003K14Rik,inactive: -0.838
7,GGAGUGACUCCAAAUUUACTT against C6.1A,inactive: 0.366
8,GGAAAAUUACUCCACUUUUTT against R3hdm,inactive: -0.411
9,GGUGUCAGUGAAGGCGAAATT against Hist1h1a,inactive: -0.264
10,GCGGAUGCCAGAUGAUUAUTT against 1110008B24Rik,inactive: 0.989
11,CGAUAAAUCACCUCAAGAUTT against Kcnn4,inactive: 0.471
12,GGGAAGGUAAGGCAUAAGCTT against 9430023B20Rik,inactive: 0.354
13,GGAGAAGCUAGAGUUCAUGTT against Fosl2,inactive: -1.28
14,GGUUCUUUGUGAACUUCCCTT against Cygb,inactive: 0.163
15,GGAUCACAUACGUACACAATT against Dpp8,inactive: 0.248
16,CGCAAUAAAGAAGAUAAACTT against Slc35f3,inactive: -0.122
17,GAUCUUUGUCCUCAUUCUCTT against Olfr1206,inactive: 0.359
18,GCACGAGGAUUCAGAUAUCTT against Gusb,inactive: 0.512
19,UACUUGUAGCCAUGGCUCUTT against Olfr685,inactive: -2.19
20,GGUGAACAUAGAUCACGAGTT against Rgs16,inactive: -0.212
21,GGAAUUCUUCAUCCAUGGATT against Olfr570,inactive: -0.618
22,GGCAAAUAGUUUCUUCAAUTT against Npnt,inactive: -0.283
23,GGGAUUCAUACUACUUAACTT against Olfr304,inactive: 0.176
24,GGGACAUUUCCAUCCUUUUTT against Prdx6-rs1,inactive: 1.1
25,GCCAAAACAAGUAUGCCCUTT against 4921511C04Rik,inactive: 0.215
26,GGACUACAAGGAUAACCCGTT against Sf4,inactive: 0.406
